# Measured values reported in the supplement of paper PMC6411743.
# ± gives the standard deviation of the averaged measurements. This is a selection; strong and weak results do not stand in their true shares.
# What was measured:
# Assay in all cases: NP40-soluble protein abundance relative to vehicle (solubility fold change) (ratio); higher = more soluble protein in presence of ATP
# [1] = biological target: T1, NPAT (UniProt Q14207)
# T1 sequence (whole entry): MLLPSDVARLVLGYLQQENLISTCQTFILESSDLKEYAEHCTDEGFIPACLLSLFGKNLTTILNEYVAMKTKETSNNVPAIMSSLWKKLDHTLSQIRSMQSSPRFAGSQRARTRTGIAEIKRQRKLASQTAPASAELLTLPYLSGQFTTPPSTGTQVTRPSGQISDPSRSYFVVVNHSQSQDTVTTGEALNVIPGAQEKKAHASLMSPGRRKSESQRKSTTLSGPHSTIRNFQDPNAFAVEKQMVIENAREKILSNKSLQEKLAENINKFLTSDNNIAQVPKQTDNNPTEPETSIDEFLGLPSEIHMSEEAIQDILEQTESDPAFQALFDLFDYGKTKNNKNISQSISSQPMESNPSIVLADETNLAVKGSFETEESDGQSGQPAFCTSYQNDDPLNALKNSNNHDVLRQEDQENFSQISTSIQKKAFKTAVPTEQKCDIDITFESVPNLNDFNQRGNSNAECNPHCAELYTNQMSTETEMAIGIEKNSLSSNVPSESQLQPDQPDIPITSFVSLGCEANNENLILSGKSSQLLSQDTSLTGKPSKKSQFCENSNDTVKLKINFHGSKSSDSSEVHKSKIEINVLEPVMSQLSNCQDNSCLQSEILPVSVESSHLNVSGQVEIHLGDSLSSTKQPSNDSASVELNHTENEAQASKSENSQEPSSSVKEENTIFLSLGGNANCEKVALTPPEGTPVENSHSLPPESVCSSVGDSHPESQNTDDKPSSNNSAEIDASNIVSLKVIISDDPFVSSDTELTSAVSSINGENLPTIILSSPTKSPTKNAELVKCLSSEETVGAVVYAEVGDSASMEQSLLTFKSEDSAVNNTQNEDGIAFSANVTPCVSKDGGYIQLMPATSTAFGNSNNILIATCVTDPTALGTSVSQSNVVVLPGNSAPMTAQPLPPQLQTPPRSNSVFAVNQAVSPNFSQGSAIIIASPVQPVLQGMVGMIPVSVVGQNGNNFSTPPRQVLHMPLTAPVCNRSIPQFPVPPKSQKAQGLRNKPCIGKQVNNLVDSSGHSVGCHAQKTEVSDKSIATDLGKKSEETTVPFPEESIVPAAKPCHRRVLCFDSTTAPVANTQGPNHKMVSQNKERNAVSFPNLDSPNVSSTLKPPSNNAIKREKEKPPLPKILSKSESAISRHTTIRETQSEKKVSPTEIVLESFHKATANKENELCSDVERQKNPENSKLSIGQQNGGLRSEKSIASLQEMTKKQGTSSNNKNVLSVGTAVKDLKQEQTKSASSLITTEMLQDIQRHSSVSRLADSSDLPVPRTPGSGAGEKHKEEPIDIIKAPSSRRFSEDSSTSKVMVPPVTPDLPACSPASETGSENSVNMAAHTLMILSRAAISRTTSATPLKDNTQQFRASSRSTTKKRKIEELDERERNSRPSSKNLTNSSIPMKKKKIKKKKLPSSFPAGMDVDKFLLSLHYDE
# In short: (§1)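 Data come from three independent experiments in which Dounce-homogenised Jurkat crude lysate was treated at eight concentrations from 0.1 to 10 mM. Treatment ran 10 min at room temperature and then 3 min at 37 °C, after which 0.8% NP40 and benzonase were added for 60 min at 4 °C before ultracentrifugation. The supernatant underwent TMT labelling and LC-MS/MS, and vsn-normalised intensities were expressed as fold change against the detergent-processed vehicle in each replicate.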
# [2] = biological target: T2, POLD3 (UniProt Q15054)
# T2 sequence (whole entry): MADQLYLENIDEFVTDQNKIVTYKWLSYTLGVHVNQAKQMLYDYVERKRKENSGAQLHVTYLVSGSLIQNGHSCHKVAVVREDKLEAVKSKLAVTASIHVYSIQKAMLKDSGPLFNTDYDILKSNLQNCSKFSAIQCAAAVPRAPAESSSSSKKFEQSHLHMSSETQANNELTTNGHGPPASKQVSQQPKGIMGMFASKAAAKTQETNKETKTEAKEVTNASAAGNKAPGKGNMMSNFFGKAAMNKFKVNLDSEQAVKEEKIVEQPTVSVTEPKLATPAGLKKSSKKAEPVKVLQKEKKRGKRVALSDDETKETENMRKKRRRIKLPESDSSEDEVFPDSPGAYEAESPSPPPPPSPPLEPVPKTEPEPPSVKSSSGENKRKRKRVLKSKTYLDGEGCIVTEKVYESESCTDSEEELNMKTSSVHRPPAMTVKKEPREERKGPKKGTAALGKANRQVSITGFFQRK
# In short: as §1
# [3] = biological target: T3, RCN1 (UniProt Q15293)
# T3 sequence (whole entry): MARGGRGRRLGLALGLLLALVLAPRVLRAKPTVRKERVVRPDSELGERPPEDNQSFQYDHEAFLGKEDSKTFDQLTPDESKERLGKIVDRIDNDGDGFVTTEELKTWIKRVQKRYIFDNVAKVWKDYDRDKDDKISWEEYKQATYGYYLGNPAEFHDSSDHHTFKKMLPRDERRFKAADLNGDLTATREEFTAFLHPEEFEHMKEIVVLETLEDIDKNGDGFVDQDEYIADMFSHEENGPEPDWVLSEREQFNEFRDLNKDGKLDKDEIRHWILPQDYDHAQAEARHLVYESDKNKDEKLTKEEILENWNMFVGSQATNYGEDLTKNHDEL
# In short: as §1
# [4] = biological target: T4, TTF1 (UniProt Q15361)
# T4 sequence (whole entry): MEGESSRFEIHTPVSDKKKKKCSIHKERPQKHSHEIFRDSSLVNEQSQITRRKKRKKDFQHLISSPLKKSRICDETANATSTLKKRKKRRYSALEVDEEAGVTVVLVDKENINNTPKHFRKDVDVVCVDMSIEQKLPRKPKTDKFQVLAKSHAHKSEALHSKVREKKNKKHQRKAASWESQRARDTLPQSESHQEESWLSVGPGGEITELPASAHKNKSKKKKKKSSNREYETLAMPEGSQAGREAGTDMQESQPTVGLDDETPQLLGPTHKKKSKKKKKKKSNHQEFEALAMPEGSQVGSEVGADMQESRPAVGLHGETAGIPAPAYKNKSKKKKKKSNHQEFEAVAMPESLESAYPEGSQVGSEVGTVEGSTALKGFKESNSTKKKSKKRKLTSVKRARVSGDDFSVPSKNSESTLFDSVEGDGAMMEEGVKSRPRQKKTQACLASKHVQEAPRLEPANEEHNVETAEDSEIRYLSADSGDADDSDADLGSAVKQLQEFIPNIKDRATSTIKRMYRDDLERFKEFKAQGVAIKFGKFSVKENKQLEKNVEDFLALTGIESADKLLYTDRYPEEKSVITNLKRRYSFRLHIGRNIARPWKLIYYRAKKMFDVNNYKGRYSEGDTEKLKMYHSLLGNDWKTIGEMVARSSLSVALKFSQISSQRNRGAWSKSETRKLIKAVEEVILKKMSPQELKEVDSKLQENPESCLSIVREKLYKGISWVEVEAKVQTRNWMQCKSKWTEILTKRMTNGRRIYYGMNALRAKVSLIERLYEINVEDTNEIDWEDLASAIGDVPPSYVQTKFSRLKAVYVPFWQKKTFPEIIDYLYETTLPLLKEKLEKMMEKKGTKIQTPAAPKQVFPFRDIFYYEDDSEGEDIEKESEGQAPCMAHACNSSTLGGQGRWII
# In short: as §1
smiles,measurement,setting,value
Nc1ncnc2c1ncn2[C@@H]1O[C@H](COP(=O)(O)OP(=O)(O)OP(=O)(O)O)[C@@H](O)[C@H]1O [adenosine triphosphate],NP40-soluble protein abundance,[1]; concentration: 1mM,1 ± 0.067
same,NP40-soluble protein abundance,[1]; concentration: 2mM,0.99 ± 0.1
same,NP40-soluble protein abundance,[1]; concentration: 4mM,1.03 ± 0.024
same,NP40-soluble protein abundance,[1]; concentration: 6mM,1.07 ± 0.13
same,NP40-soluble protein abundance,[1]; concentration: 8mM,1 ± 0.074
same,NP40-soluble protein abundance,[1]; concentration: 10mM,1.03 ± 0.081
same,NP40-soluble protein abundance,[2]; concentration: 1mM,0.9308 ± 0.0092
same,NP40-soluble protein abundance,[2]; concentration: 2mM,0.938 ± 0.039
same,NP40-soluble protein abundance,[2]; concentration: 4mM,0.907 ± 0.058
same,NP40-soluble protein abundance,[2]; concentration: 6mM,0.941 ± 0.027
same,NP40-soluble protein abundance,[2]; concentration: 8mM,0.887 ± 0.049
same,NP40-soluble protein abundance,[2]; concentration: 10mM,0.897 ± 0.041
same,NP40-soluble protein abundance,[3]; concentration: 1mM,0.991 ± 0.059
same,NP40-soluble protein abundance,[3]; concentration: 2mM,1.002 ± 0.0026
same,NP40-soluble protein abundance,[3]; concentration: 4mM,0.987 ± 0.011
same,NP40-soluble protein abundance,[3]; concentration: 6mM,0.993 ± 0.014
same,NP40-soluble protein abundance,[3]; concentration: 8mM,0.98 ± 0.02
same,NP40-soluble protein abundance,[3]; concentration: 10mM,0.962 ± 0.045
same,NP40-soluble protein abundance,[4]; concentration: 1mM,0.925 ± 0.13
same,NP40-soluble protein abundance,[4]; concentration: 2mM,0.903 ± 0.16
same,NP40-soluble protein abundance,[4]; concentration: 4mM,0.946 ± 0.17
same,NP40-soluble protein abundance,[4]; concentration: 6mM,0.942 ± 0.2
same,NP40-soluble protein abundance,[4]; concentration: 8mM,0.954 ± 0.18
same,NP40-soluble protein abundance,[4]; concentration: 10mM,0.931 ± 0.23

# No new results follow: an excerpt of the list.
smiles,measurement,setting,value
Nc1ncnc2c1ncn2[C@@H]1O[C@H](COP(=O)(O)OP(=O)(O)OP(=O)(O)O)[C@@H](O)[C@H]1O [adenosine triphosphate],NP40-soluble protein abundance,[1]; concentration: 1mM,1 ± 0.067
same,NP40-soluble protein abundance,[1]; concentration: 2mM,0.99 ± 0.1
